# Results reported in paper PMC10656229.
# The chains behind the UniProt entries cited, without tags or fusion partners.
# UniProt Q6SEG5: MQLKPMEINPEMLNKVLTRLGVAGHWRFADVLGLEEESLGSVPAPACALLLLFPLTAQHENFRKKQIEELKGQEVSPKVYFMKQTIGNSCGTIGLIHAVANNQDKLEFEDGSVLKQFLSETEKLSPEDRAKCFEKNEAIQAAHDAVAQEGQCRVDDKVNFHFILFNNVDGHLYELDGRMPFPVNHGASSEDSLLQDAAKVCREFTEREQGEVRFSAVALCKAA
# Biological target: Myc-UCHL1 (UniProt Q6SEG5)
# Assay: affinity purification with mass spectrometry; lysate of porcine granulosa cells precleared with magnetic beads, IP with anti-Myc overnight at 4 °C, beads washed three times, LC-MS/MS
binder,measurement,value
"voltage-dependent anion channel 2 (VDAC2) (protein, UniProt Q9MZ15 1-294) MASYGQTCPRPMCIPPSYADLGKAARDIFNKGFGFGLVKLDVKTKSCSGVEFSTSGSSNTDTGKVTGTLETKYKWCEYGLTFTEKWNTDNTLGTEIAIEDQICQGLKLTFDTTFSPNTGKKSGKIKSSYKRECVNLGCDVDFDFAGPAIHGSAVFGYEGWLAGYQMTFDSAKSKLTRNNFAVGYRTGDFQLHTNVNDGTEFGGSIYQKVCEDLDTSVNLAWTSGTNCTRFGIAAKYQLDPTASISAKVNNSSLIGVGYTQTLRPGVKLTLSALVDGKSINAGGHKLGLALELEA",binding,binds

# Results are given in words; binding and its absence hold for the method and conditions named. Binding seen in cells or lysates may run through a third protein. These calls come from enrichment with a bait or labelling near it, and not all partners need be listed. Sequences can lack the tags named with a protein.
